Assay [1] deals with EBNA3C (EBV latent antigen, as expressed in B-cell lines) (Epstein-Barr virus (endogenous in EBV-transformed LcLs; stably expressed in BJAB7)) (UniProt P03204). The experiment in a line: co-IP; 30 million BJAB, BJAB7 and LcL cells lysed with RIPA buffer; IP with EBNA3C antibody or with METTL14 antibody, protein A/G Sepharose, 4°C overnight; western blot of endogenous EBNA3C and METTL14.

Chains of the proteins cited; added tags and fusions are not shown. Lines headed by an entry give the natural chain unless they say otherwise; changes in a name come on top. A line that says so, or that is headed by a name, gives the form on record, which may keep a tag or linker. Residues count along the entry.
UniProt P03204: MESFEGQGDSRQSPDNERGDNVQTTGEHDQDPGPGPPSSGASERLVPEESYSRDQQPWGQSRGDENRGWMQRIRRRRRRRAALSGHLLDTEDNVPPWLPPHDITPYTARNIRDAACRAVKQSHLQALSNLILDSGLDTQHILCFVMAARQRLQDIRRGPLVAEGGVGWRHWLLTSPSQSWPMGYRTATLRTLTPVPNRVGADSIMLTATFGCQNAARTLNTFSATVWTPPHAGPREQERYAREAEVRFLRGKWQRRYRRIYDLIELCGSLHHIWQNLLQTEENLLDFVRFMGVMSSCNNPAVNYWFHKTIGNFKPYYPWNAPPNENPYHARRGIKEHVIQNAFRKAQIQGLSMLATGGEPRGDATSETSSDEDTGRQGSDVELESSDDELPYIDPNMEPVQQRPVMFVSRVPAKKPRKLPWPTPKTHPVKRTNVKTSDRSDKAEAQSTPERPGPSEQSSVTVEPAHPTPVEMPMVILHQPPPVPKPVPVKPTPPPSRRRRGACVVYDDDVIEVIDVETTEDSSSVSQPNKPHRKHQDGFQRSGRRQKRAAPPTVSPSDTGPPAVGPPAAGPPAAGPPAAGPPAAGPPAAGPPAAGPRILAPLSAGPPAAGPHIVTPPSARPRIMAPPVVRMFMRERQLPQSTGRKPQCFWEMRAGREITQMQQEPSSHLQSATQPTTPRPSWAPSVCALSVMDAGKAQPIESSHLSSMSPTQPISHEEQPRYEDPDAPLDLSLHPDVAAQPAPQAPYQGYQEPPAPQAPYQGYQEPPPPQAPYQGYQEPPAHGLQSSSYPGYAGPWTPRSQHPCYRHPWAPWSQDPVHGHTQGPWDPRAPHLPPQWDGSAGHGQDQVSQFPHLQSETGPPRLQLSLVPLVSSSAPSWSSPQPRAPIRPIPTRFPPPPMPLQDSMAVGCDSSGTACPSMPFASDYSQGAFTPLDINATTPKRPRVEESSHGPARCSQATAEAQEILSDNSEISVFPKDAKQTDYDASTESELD
Myc-tagged EBNA3C 1-365aa: residues 1-365 of P03204
Myc-tagged EBNA3C 100-200aa: residues 100-200 of P03204

Assay [2] has as its target Myc-tagged EBNA3C 1-365aa (Epstein-Barr virus) (UniProt P03204). Nature of the assay: co-IP; HEK293 cells co-transfected with Myc-tagged EBNA3C (full length or regions) and Flag-tagged METTL14, lysed with RIPA buffer 48 hours later; IP with Myc or Flag antibody (Myc antibody only for the 1-100, 100-200, 200-300 regions), protein A/G Sepharose, 4°C overnight; western blot. (In general: In western blotting, separated proteins are transferred to a membrane and probed.)

The target in assay [3] is Myc-tagged EBNA3C 100-200aa (Epstein-Barr virus) (UniProt P03204). Described as above.
Assay [4] deals with Myc-tagged full-length EBNA3C (1-992aa) (Epstein-Barr virus) (UniProt P03204). The description is as above.

The results in this text go back to article PMC6588254.

No constants are given. Whether binding was seen depends on the method and setting. In cells and extracts the contact can be indirect. Some binding calls cover weakened binding; strength is not graded here. For some of these results: Sequences can lack the tags named with a protein.

B1: METTL14 (endogenous) (protein, UniProt Q9HCE5 1-456)
chain: MDSRLQEIRERQKLRRQLLAQQLGAESADSIGAVLNSKDEQREIAETRETCRASYDTSAPNAKRKYLDEGETDEDKMEEYKDELEMQQDEENLPYEEEIYKDSSTFLKGTQSLNPHNDYCQHFVDTGHRPQNFIRDVGLADRFEEYPKLRELIRLKDELIAKSNTPPMYLQADIEAFDIRELTPKFDVILLEPPLEEYYRETGITANEKCWTWDDIMKLEIDEIAAPRSFIFLWCGSGEGLDLGRVCLRKWGYRRCEDICWIKTNKNNPGKTKTLDPKAVFQRTKEHCLMGIKGTVKRSTDGDFIHANVDIDLIITEEPEIGNIEKPVEIFHIIEHFCLGRRRLHLFGRDSTIRPGWLTVGPTLTNSNYNAETYASYFSAPNSYLTGCTEEIERLRPKSPPPKSKSDRGGGAPRGGGRGGTSAGRGRERNRSNFRGERGGFRGGRGGAHRGGFPPR
Regarding B1, in assay [1], the binding entry is reported as “binds”.

B2: Flag-tagged METTL14 (protein, UniProt Q9HCE5 1-456)
chain: MDSRLQEIRERQKLRRQLLAQQLGAESADSIGAVLNSKDEQREIAETRETCRASYDTSAPNAKRKYLDEGETDEDKMEEYKDELEMQQDEENLPYEEEIYKDSSTFLKGTQSLNPHNDYCQHFVDTGHRPQNFIRDVGLADRFEEYPKLRELIRLKDELIAKSNTPPMYLQADIEAFDIRELTPKFDVILLEPPLEEYYRETGITANEKCWTWDDIMKLEIDEIAAPRSFIFLWCGSGEGLDLGRVCLRKWGYRRCEDICWIKTNKNNPGKTKTLDPKAVFQRTKEHCLMGIKGTVKRSTDGDFIHANVDIDLIITEEPEIGNIEKPVEIFHIIEHFCLGRRRLHLFGRDSTIRPGWLTVGPTLTNSNYNAETYASYFSAPNSYLTGCTEEIERLRPKSPPPKSKSDRGGGAPRGGGRGGTSAGRGRERNRSNFRGERGGFRGGRGGAHRGGFPPR
As to B2, the binding result in assay [2], in assay [3] and in assay [4] was “binds” each time.
